Laboratory results: the supplement of paper PMC10060354, “Discovery of a small molecule ligand of FRS2 that inhibits invasion and tumor growth” (Cellular Oncology, 2022)
Many values rest on one well or one pass, so single values are uncertain.

Sequences of proteins named here, by UniProt entry; tags and fusion partners are left off. A change or cut given only in a name is not applied to a line headed by its entry.
UniProt P15170, whole entry: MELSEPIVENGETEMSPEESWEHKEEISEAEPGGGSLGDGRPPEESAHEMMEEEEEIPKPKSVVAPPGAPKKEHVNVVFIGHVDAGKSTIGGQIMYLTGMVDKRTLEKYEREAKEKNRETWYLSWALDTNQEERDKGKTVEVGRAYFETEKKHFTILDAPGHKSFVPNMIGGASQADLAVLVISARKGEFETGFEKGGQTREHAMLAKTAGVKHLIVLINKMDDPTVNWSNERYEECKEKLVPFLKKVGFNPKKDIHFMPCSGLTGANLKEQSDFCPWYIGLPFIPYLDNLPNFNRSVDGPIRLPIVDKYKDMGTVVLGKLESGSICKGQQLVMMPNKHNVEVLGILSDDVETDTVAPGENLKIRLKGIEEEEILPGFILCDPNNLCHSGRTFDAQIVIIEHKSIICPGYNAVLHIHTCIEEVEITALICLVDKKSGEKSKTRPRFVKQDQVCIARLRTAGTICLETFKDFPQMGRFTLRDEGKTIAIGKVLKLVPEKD
UniProt Q15029: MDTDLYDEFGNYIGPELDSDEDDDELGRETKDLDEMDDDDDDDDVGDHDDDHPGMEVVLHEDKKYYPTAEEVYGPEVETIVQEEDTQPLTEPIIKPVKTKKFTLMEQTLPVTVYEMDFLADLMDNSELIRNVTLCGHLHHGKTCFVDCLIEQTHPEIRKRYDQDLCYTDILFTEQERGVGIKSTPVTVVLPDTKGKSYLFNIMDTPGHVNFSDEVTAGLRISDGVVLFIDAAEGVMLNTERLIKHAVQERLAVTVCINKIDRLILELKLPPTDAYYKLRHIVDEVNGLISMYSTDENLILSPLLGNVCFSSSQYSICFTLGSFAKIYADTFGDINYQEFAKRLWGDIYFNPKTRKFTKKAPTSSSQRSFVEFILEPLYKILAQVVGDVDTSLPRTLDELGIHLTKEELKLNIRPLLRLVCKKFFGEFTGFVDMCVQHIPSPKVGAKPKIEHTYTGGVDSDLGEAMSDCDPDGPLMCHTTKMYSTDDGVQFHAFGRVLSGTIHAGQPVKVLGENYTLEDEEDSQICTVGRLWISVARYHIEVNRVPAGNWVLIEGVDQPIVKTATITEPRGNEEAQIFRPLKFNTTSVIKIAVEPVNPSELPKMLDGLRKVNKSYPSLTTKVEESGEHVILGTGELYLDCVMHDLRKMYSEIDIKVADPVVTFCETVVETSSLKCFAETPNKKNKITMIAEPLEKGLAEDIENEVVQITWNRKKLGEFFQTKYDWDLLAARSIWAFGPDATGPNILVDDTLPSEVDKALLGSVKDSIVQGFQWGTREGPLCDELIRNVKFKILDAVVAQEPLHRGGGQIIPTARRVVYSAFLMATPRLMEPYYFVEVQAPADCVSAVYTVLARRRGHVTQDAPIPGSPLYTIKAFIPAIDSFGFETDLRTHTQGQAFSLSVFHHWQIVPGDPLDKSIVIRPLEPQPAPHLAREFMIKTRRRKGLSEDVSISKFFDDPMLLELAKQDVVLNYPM
UniProt Q9UL26: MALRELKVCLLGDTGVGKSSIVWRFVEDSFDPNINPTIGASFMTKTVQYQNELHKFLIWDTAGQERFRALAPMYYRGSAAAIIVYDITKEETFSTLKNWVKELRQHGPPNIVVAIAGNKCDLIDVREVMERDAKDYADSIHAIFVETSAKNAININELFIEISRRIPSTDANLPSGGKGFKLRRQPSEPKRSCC
UniProt P55735: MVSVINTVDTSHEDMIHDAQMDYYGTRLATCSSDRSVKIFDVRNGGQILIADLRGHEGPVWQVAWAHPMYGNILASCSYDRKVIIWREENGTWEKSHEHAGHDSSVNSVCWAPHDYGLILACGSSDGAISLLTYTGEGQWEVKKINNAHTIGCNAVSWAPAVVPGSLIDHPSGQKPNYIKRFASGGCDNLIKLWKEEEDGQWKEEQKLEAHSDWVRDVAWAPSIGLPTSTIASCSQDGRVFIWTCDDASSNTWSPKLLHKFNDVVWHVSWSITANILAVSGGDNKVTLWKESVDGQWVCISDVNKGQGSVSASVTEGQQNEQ
UniProt P23368: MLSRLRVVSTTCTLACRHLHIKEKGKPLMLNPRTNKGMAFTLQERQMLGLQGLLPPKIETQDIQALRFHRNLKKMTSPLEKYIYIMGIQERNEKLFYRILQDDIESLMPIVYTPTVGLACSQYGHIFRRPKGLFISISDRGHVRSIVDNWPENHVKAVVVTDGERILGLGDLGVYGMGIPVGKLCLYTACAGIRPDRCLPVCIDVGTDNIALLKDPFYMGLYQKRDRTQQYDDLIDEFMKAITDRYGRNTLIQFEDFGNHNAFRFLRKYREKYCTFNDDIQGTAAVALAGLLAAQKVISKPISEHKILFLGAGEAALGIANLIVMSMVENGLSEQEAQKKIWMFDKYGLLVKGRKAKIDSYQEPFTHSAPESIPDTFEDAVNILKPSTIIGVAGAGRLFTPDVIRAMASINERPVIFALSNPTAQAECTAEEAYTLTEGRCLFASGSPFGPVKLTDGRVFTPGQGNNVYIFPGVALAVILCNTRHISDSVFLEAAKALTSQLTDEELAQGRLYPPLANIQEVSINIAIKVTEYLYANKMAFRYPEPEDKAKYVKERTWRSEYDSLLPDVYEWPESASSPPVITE
UniProt Q8TAA9: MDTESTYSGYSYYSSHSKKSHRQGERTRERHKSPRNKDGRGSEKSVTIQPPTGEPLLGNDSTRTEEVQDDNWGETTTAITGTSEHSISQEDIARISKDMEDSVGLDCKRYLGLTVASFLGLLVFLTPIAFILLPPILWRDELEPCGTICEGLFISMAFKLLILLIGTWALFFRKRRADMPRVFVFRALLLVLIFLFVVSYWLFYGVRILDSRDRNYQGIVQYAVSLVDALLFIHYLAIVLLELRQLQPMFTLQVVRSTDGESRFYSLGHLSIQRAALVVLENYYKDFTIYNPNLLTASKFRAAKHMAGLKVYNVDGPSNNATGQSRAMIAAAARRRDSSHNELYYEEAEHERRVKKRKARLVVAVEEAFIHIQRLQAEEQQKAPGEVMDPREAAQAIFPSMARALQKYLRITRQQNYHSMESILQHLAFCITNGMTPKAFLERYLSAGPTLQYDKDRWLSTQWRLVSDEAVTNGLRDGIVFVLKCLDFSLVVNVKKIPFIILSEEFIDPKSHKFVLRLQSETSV
UniProt O95396: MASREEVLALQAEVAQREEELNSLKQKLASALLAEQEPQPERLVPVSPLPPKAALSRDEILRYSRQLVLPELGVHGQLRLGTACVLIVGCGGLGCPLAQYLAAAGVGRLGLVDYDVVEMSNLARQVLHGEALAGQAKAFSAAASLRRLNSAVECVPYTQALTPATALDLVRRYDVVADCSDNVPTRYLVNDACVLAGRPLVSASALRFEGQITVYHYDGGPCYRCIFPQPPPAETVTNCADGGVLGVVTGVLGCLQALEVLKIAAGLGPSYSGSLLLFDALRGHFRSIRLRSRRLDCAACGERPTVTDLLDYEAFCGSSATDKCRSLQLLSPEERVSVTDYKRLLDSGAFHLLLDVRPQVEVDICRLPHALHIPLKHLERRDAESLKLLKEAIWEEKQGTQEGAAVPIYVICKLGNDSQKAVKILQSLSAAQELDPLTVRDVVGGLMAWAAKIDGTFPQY
UniProt Q9H0R3: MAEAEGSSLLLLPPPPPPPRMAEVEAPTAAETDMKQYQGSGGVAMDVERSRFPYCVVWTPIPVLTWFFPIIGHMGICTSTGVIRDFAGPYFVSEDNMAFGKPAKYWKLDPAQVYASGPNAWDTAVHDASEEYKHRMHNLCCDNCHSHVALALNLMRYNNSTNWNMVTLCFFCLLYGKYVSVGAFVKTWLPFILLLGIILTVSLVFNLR
UniProt Q96CW5, whole entry: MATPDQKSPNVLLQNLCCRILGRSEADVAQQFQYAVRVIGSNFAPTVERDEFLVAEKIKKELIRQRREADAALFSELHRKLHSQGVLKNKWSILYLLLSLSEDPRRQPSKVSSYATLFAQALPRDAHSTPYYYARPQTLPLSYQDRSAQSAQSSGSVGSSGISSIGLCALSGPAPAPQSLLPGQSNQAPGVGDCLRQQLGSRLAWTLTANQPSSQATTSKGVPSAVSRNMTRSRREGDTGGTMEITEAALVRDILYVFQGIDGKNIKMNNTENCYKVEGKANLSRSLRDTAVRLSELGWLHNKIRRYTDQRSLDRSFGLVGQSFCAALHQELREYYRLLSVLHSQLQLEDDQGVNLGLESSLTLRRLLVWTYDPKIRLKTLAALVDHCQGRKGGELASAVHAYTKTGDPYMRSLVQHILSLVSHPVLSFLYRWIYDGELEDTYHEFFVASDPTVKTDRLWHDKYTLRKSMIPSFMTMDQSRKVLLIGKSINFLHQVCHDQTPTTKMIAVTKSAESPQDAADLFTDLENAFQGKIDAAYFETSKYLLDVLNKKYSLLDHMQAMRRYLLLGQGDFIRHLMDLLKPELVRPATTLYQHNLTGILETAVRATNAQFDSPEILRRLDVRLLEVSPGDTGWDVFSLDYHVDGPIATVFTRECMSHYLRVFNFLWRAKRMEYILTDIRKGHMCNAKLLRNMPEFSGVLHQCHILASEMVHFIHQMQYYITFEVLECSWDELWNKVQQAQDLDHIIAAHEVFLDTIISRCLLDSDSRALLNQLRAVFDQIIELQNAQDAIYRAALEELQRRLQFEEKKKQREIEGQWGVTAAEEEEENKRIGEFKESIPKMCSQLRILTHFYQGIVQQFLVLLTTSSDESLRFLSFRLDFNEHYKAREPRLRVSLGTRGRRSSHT
UniProt Q9NYL9: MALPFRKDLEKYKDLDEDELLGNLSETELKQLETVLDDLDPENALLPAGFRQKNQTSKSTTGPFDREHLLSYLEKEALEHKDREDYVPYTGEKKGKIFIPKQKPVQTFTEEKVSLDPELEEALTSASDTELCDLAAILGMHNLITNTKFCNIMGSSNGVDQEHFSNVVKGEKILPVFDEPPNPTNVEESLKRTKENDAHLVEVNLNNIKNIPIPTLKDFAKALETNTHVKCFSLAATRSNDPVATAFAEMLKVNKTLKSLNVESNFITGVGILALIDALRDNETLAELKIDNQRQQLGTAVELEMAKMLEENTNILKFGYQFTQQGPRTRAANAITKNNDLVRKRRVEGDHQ
UniProt P06280: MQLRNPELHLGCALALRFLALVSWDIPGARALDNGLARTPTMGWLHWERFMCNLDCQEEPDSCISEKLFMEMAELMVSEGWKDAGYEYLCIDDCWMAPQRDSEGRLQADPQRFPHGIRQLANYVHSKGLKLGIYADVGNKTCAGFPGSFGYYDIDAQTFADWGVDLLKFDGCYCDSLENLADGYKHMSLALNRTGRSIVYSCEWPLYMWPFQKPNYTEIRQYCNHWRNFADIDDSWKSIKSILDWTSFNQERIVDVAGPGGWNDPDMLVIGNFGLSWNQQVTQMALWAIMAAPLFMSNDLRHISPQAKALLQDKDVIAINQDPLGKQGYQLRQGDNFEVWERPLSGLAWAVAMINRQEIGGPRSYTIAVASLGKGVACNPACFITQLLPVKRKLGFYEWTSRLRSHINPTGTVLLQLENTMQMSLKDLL
UniProt Q86X76: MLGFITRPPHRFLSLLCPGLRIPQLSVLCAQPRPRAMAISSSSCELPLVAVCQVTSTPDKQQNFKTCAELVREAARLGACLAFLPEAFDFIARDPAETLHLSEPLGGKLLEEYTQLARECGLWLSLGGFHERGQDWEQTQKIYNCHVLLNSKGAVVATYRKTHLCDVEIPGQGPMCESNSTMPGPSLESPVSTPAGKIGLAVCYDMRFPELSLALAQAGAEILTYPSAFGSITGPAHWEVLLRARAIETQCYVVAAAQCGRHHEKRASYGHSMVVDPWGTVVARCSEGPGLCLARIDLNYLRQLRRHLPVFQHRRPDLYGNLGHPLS
UniProt P84077: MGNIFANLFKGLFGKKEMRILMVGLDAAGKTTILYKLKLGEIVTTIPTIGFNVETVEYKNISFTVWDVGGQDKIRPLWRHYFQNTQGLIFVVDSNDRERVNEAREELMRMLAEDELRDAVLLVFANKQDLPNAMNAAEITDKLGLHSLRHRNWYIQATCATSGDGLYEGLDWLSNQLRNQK
UniProt Q9NPF2: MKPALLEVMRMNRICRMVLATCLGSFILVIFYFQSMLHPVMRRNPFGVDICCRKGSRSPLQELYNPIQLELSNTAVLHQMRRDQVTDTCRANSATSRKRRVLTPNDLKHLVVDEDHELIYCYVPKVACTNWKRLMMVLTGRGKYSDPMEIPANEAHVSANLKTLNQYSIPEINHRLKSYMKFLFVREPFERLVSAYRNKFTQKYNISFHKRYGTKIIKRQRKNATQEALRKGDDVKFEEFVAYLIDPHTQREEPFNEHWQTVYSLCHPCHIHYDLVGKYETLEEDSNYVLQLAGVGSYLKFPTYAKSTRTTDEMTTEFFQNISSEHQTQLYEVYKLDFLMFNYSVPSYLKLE
UniProt Q53HI1: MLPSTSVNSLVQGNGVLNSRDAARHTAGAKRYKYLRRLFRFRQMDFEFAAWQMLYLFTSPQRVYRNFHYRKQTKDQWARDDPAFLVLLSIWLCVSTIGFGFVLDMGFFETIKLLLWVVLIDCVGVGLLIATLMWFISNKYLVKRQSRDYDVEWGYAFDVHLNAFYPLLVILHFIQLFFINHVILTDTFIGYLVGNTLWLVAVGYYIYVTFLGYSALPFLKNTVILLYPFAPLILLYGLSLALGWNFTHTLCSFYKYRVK

Compound: [O-][N+](C(C1=C(C(O)=C2)NC(C(C=C3)=CC=C3Cl)C4C1C=CC4)=C2Cl)=O
Test: melting temperature shift (compound 7 minus DMSO); higher = compound stabilises the protein
Settings: 10 µM
Experimental: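 Thermal proteome profiling (TMT mass spectrometry) in intact DAOY medulloblastoma cells or DAOY lysates treated with 10 µM compound 7 or DMSO, heated at 10 temperatures from 40.5 to 73.8 °C for 3 min. Melting curves were fitted with the Bioconductor TPP package, and the melting point difference between compound and vehicle is reported per protein (single curve per condition).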

[1] = system: intact DAOY cells, treatment time: 90 min, 37 °C
[2] = system: DAOY cell lysate, treatment time: 20 min, 4 °C

Row | Target | melting temperature shift [1] [°C] | melting temperature shift [2] [°C]
1 | UniProt Q6ZT62 | -1.05 | 
2 | COX20 (UniProt Q5RI15) |  | 4.89
3 | UniProt Q8NA31 |  | -2.64
4 | RPA2 (UniProt P15927) | 0.594 | -0.718
5 | GSPT1 (UniProt P15170) | -0.591 | -0.292
6 | SNX8 (UniProt Q9Y5X2) | -1.68 | -0.789
7 | UniProt A8MVM7 | -0.916 | 
8 | UniProt Q5T655 |  | 0.0361
9 | ISG15 (UniProt P05161) | -0.161 | -0.738
10 | MSMO1 (UniProt Q15800) | -1.16 | 0.0219
11 | EFTUD2 (UniProt Q15029) | 2.56 | -0.128
12 | RAB22A (UniProt Q9UL26) | -0.259 | 0.0861
13 | UniProt Q96MU7 | 0.278 | 0.055
14 | PHLDA2 (UniProt Q53GA4) | 0.468 | 
15 | PFKM (UniProt P08237) | -0.235 | -0.577
16 | ZMYM3 (UniProt Q14202) |  | 0.212
17 | RPS3A (UniProt P61247) | -0.957 | 0.157
18 | RAB11FIP5 (UniProt Q9BXF6) | 0.0684 | 0.219
19 | POLR3D (UniProt P05423) |  | -1.49
20 | PDCL (UniProt Q13371) | 0.192 | -0.563
21 | SMYD5 (UniProt Q6GMV2) | 0.124 | 0.638
22 | PBK (UniProt Q96KB5) | -0.0515 | -0.702
23 | STIP1 (UniProt P31948) | 0.323 | -2.13

3 entries from above, as labelled records:
UniProt Q6ZT62
  melting temperature shift [1] [°C] = -1.05
COX20 (UniProt Q5RI15)
  melting temperature shift [2] [°C] = 4.89
UniProt Q8NA31
  melting temperature shift [2] [°C] = -2.64

Next entries follow:

Row | Target | melting temperature shift [1] [°C] | melting temperature shift [2] [°C]
24 | TUBG1 (UniProt P23258) | 0.406 | -0.0811
25 | GPRC5A (UniProt Q8NFJ5) |  | 2.79
26 | GPN2 (UniProt Q9H9Y4) |  | -0.607
27 | UniProt Q9UGY1 | -0.182 | 1.39
28 | RPS14 (UniProt P62263) | -0.115 | 0.0486
29 | UniProt Q96C03 | -0.924 | 
30 | UniProt Q86UP8 | 0.467 | 
31 | SEC13 (UniProt P55735) | 0.112 | 0.506
32 | CRYZ (UniProt Q08257) | -0.621 | -0.423
33 | KANK1 (UniProt Q14678) | 0.585 | -0.721
34 | TSFM (UniProt P43897) | -0.264 | 0.518
35 | PDIA3 (UniProt P30101) | 0.628 | 0.486
36 | CASP8 (UniProt Q14790) | 0.0169 | -1.31
37 | TIMELESS (UniProt Q9UNS1) |  | -0.607
38 | UniProt P49356 | 0.565 | 0.115
39 | ZNF143 (UniProt P52747) |  | 2.86
40 | STAU2 (UniProt Q9NUL3) | 0.00602 | -0.58
41 | UROD (UniProt P06132) | 1.41 | 0.0875
42 | ME2 (UniProt P23368) | 2.7 | 0.775
43 | TCF25 (UniProt Q9BQ70) |  | -0.297
44 | PCM1 (UniProt Q15154) | -0.212 | -0.412
45 | UniProt Q9UBZ9 | -1.85 | 
46 | E2F3 (UniProt O00716) |  | 0.289

Row | Target | melting temperature shift [1] [°C] | melting temperature shift [2] [°C]
47 | CASK (UniProt O14936) | -0.0459 | -0.202
48 | VANGL1 (UniProt Q8TAA9) | -0.858 | 1.28
49 | FKBP10 (UniProt Q96AY3) |  | 1.61
50 | ZYX (UniProt Q15942) |  | -3.73
51 | AP2S1 (UniProt P53680) | -0.412 | -0.574
52 | MOCS3 (UniProt O95396) |  | -1.09
53 | DBR1 (UniProt Q9UK59) | 0.169 | -0.555
54 | CTH (UniProt P32929) | 3.34 | -1.15
55 | ZSWIM8 (UniProt A7E2V4) |  | 1.9
56 | UniProt Q5T7W0 | -0.733 | 
57 | RSL24D1 (UniProt Q9UHA3) | 1.26 | 1.46
58 | BNIP1 (UniProt Q12981) | -0.739 | 2.15
59 | UniProt Q8TCU4 |  | 0.488
60 | CCDC22 (UniProt O60826) | -0.52 | 0.0263
61 | RAD21 (UniProt O60216) | -0.98 | -0.0626
62 | EOGT (UniProt Q5NDL2) | -0.433 | 0.516
63 | UniProt P01023 | 4.43 | -0.547
64 | DDX27 (UniProt Q96GQ7) | 2.24 | 0.749
65 | CDC73 (UniProt Q6P1J9) | -0.355 | -1.32
66 | UniProt Q9H0R3 |  | 1.9
67 | TUBGCP3 (UniProt Q96CW5) | -0.66 | -1.98
68 | RHOA (UniProt P61586) | -1.88 | 0.537
69 | TMOD3 (UniProt Q9NYL9) | -0.149 | -0.268

4 entries picked at random from the list so far:
Row | Target | melting temperature shift [1] [°C] | melting temperature shift [2] [°C]
4 | RPA2 (UniProt P15927) | 0.594 | -0.718
48 | VANGL1 (UniProt Q8TAA9) | -0.858 | 1.28
8 | UniProt Q5T655 |  | 0.0361
29 | UniProt Q96C03 | -0.924 | 

The results go on.

Row | Target | melting temperature shift [1] [°C] | melting temperature shift [2] [°C]
70 | KCTD3 (UniProt Q9Y597) |  | 1.05
71 | PNKP (UniProt Q96T60) | 1.36 | 0.281
72 | UniProt P0C7V7 | 0.0203 | 
73 | UniProt P55347 |  | -1.96
74 | UniProt P43359 |  | -1.62
75 | COQ5 (UniProt Q5HYK3) | -1.9 | -1.87
76 | HLCS (UniProt P50747) | 0.0907 | -0.255
77 | CHPF2 (UniProt Q9P2E5) | 2.89 | 1.31
78 | ZDHHC17 (UniProt Q8IUH5) | 1.95 | 0.559
79 | UniProt Q5TAQ9 | -0.111 | -2.19
80 | UBE2Z (UniProt Q9H832) | -0.825 | 0.0634
81 | GLA (UniProt P06280) | 1.23 | 2.7
82 | CKS1B (UniProt P61024) |  | -2.59
83 | DCAF6 (UniProt Q58WW2) | 1.26 | 0.0724
84 | NIT1 (UniProt Q86X76) | -5.13 | 
85 | TLK2 (UniProt Q86UE8) |  | -0.604
86 | UniProt Q8WXX7 |  | 1.24
87 | ATL3 (UniProt Q6DD88) | -1.3 | 0.771
88 | MAP7D3 (UniProt Q8IWC1) | 3.02 | 0.788
89 | ARPC2 (UniProt O15144) | -0.345 | -1.31
90 | TXNL4A (UniProt P83876) | -0.0301 | -0.0965
91 | RBM17 (UniProt Q96I25) | -0.168 | 0.254
92 | TBC1D24 (UniProt Q9ULP9) | -2.19 | 1.5

Row | Target | melting temperature shift [1] [°C] | melting temperature shift [2] [°C]
93 | UniProt P50613 | 0.64 | -0.529
94 | A0AVT1 | 0.473 | -0.572
95 | UniProt O95059 | 0.299 | 2.05
96 | UniProt P00750 | 6.23 | 
97 | FGF2 (UniProt P09038) | -1.94 | -0.94
98 | UniProt P84077 | -1.13 | -0.884
99 | IPO11 (UniProt Q9UI26) | 0.107 | 0.676
100 | PATL1 (UniProt Q86TB9) | -0.794 | -0.633
101 | USP11 (UniProt P51784) | -0.119 | -0.763
102 | RFX1 (UniProt P22670) | 1.37 | -0.0956
103 | CDKN2AIP (UniProt Q9NXV6) | 0.0566 | 0.909
104 | SLBP (UniProt Q14493) |  | 0.0074
105 | UniProt Q9NPF2 | 0.839 | 
106 | GNB2 (UniProt P62879) | -0.428 | 1.1
107 | UniProt Q53HI1 | 0.176 | 
108 | MRPL11 (UniProt Q9Y3B7) | -0.917 | 0.747
109 | UniProt Q9H903 | -1.73 | 
110 | NUDT12 (UniProt Q9BQG2) | -2.28 | -1.4
111 | UniProt A6NMY6 | 0.315 | 
112 | AGMAT (UniProt Q9BSE5) | -3.46 | -0.498
113 | UniProt Q6VEQ5 | 1.4 | -0.503
114 | MRPS34 (UniProt P82930) | -0.18 | 0.0118
115 | DDX42 (UniProt Q86XP3) | -0.24 | -0.0659
